This passage reports odorant receptor activation results from the odorant receptor screen of Mainland et al. (2015).

Values joined by “and” are separate entries in the source; they are usually repeats but may differ in a detail not shown here. Equal values may be shown once. This is one part of the list. Each value is one well over the wells without odorant, computed here; the data are noisy.

Among the test systems are OR4K13 clone 1266; OR4K14 clone 1276; OR4K17 clone 1319; OR4K17 clone 1420; OR4K2 clone 1258; OR4K3 clone 1259; OR4K5 clone 1261; OR4L1 R52S clone 1265; OR4M1 clone 1559; OR4M2 clone 1278; OR4N2 clone 1270; OR4N4 clone 1277; OR4N5 clone 1262; OR4P4 R231C clone 1398; OR4P4 clone 1139; OR4Q3 clone 1411; OR4S1 clone 1283; OR4S2 clone 1175; OR4X2 clone 1193.
Holding throughout (test): odorant receptor activation (CRE luciferase / Renilla) (fold of no-odor wells); higher = more activation
Holding throughout (settings): 100 µM

Assay [1] concerns OR4K15 N65S/E88V/S93A/A231E/L280P/I286M clone 1566.

As for `CC(C)CC(=O)O` [isovaleric acid], the odorant receptor activation in the assay with OR4K13 clone 1266 turned out to be 0.725; with OR4K14 clone 1276, 0.783; in [1], 0.979; in the assay with OR4K17 clone 1319, 0.835; in the assay on OR4K17 clone 1420, 0.84; in the assay on OR4K2 clone 1258, 0.733. Besides, the odorant receptor activation in the assay on OR4K3 clone 1259 was 0.792; in the assay with OR4K5 clone 1261, 0.987; in the assay on OR4L1 R52S clone 1265, 0.815; in the assay with OR4M1 clone 1559, 0.855; in the assay on OR4M2 clone 1278, 0.735; in the assay with OR4N2 clone 1270, 0.633. The odorant receptor activation with OR4N4 clone 1277 was found to be 0.886; in the assay on OR4N5 clone 1262, 0.82; in the assay on OR4P4 R231C clone 1398 it was 0.606; with OR4P4 clone 1139, 1.21; in the assay on OR4Q3 clone 1411 it was 0.778; in the assay with OR4S1 clone 1283, 0.625. Further, the values for the odorant receptor activation with OR4S2 clone 1175 and with OR4X2 clone 1193 were 1.03 and 1.61, respectively.

Take `CCCCCCOC(=O)CCC` [hexyl butyrate]: the odorant receptor activation was 1.17 and 0.976 in the assay with OR4K13 clone 1266; 1.25 and 1.01 in the assay on OR4K14 clone 1276; 0.713 in [1]; 1.08 and 0.876 with OR4K17 clone 1319; 0.856 in the assay on OR4K17 clone 1420; 0.74 and 1.31 with OR4K2 clone 1258. Also, the odorant receptor activation in the assay on OR4K3 clone 1259 is 1.05 and 0.715; with OR4K5 clone 1261 it was 0.922 and 0.957; in the assay with OR4L1 R52S clone 1265, 0.845 and 1.04; in the assay with OR4M1 clone 1559, 0.961; in the assay on OR4M2 clone 1278, 1.12 and 0.8; in the assay on OR4N2 clone 1270, 0.918 and 1.01. Besides, the odorant receptor activation with OR4N4 clone 1277 is 1.1 and 0.763; with OR4N5 clone 1262, 1.37 and 0.756; with OR4P4 R231C clone 1398, 0.559; with OR4P4 clone 1139 it was 0.572; with OR4Q3 clone 1411, 0.809; with OR4S1 clone 1283, 1.08 and 0.967. Moreover, the values for the odorant receptor activation in the assay with OR4S2 clone 1175 and in the assay with OR4X2 clone 1193 were 1.2 and 0.85, respectively.

For the compound `COc1ccccc1O` [guaiacol], the odorant receptor activation was 1.1 and 0.909 in the assay with OR4K13 clone 1266; 1.21 and 0.9 in the assay with OR4K14 clone 1276; 0.834 in [1]; 0.722 and 0.845 in the assay on OR4K17 clone 1319; 0.867 with OR4K17 clone 1420; 0.86 and 0.921 in the assay with OR4K2 clone 1258. For the same compound, the odorant receptor activation in the assay with OR4K3 clone 1259 is 1.45 and 0.854; in the assay with OR4K5 clone 1261 it was 0.818 and 0.923; in the assay on OR4L1 R52S clone 1265, 0.884 and 1; in the assay on OR4M1 clone 1559 it was 0.892; in the assay on OR4M2 clone 1278 it was 0.93 and 0.806; in the assay on OR4N2 clone 1270, 1.19 and 1.2. For the same compound, the odorant receptor activation with OR4N4 clone 1277 is 0.842 and 0.874; in the assay with OR4N5 clone 1262 it was 0.964 and 0.752; in the assay with OR4P4 R231C clone 1398, 0.679; in the assay with OR4P4 clone 1139, 0.645; with OR4Q3 clone 1411, 0.767; in the assay on OR4S1 clone 1283 it was 0.779 and 1.14. The odorant receptor activation in the assay on OR4S2 clone 1175 was determined as 0.968; in the assay with OR4X2 clone 1193 it was 0.685.

`CCCCCCCCCC=O` [decyl aldehyde]: the odorant receptor activation in the assay on OR4K13 clone 1266 was 1.53; with OR4K14 clone 1276, 1.3; in [1] it was 1.48; in the assay with OR4K17 clone 1319 it was 1.45; in the assay on OR4K17 clone 1420, 1.4; with OR4K2 clone 1258, 1.22. For the same compound, the odorant receptor activation with OR4K3 clone 1259 worked out at 1.3; with OR4K5 clone 1261, 1.1; with OR4L1 R52S clone 1265 it was 1.3; with OR4M1 clone 1559 it was 0.864; in the assay with OR4M2 clone 1278, 1.46; in the assay on OR4N2 clone 1270 it was 1.12. For the same compound, the odorant receptor activation in the assay on OR4N4 clone 1277 worked out at 1.19; with OR4N5 clone 1262, 2.06; in the assay with OR4P4 R231C clone 1398 it was 1.22; in the assay with OR4P4 clone 1139 it was 1.08; with OR4Q3 clone 1411, 1.51; with OR4S1 clone 1283 it was 1.27. Moreover, the odorant receptor activation in the assay on OR4S2 clone 1175 was 1.03; with OR4X2 clone 1193 it was 1.15.

In the case of `COC(=O)c1ccccc1O` [methyl salicylate], the odorant receptor activation was determined as 0.88 in the assay with OR4K13 clone 1266; 1.05 with OR4K14 clone 1276; 0.831 in assay [1]; 0.918 in the assay with OR4K17 clone 1319; 1 with OR4K17 clone 1420; 0.775 in the assay on OR4K2 clone 1258. Further, the odorant receptor activation in the assay on OR4K3 clone 1259 is 0.741; in the assay on OR4K5 clone 1261 it was 0.752; in the assay with OR4L1 R52S clone 1265, 0.956; with OR4M1 clone 1559, 1.03; in the assay on OR4M2 clone 1278, 0.784; in the assay with OR4N2 clone 1270, 0.893. The odorant receptor activation in the assay on OR4N4 clone 1277 amounted to 0.96; in the assay with OR4N5 clone 1262, 0.766; with OR4P4 R231C clone 1398 it was 1.05; in the assay with OR4P4 clone 1139, 0.922; in the assay on OR4Q3 clone 1411, 1.25; in the assay with OR4S1 clone 1283, 0.739. Further, the odorant receptor activation came to 0.808 with OR4S2 clone 1175 and 1.13 in the assay with OR4X2 clone 1193.

For `C=CC(C)(O)CCC=C(C)C` (stereo not given) [linalool], the odorant receptor activation with OR4K13 clone 1266 is 0.936; in the assay on OR4K14 clone 1276 it was 1.01; in [1], 0.856; with OR4K17 clone 1319 it was 0.908; in the assay on OR4K17 clone 1420, 1.15; with OR4K2 clone 1258, 0.792. Further, the odorant receptor activation came out at 0.857 in the assay with OR4K3 clone 1259; 0.915 in the assay with OR4K5 clone 1261; 1.08 with OR4L1 R52S clone 1265; 0.881 in the assay on OR4M1 clone 1559; 0.85 with OR4M2 clone 1278; 0.858 in the assay on OR4N2 clone 1270. Besides, the odorant receptor activation was 1.02 with OR4N4 clone 1277; 0.973 in the assay on OR4N5 clone 1262; 0.934 in the assay with OR4P4 R231C clone 1398; 1.05 in the assay on OR4P4 clone 1139; 0.829 in the assay on OR4Q3 clone 1411; 0.912 with OR4S1 clone 1283. The odorant receptor activation with OR4S2 clone 1175 was 1.09; in the assay with OR4X2 clone 1193, 1.32.

Turning to `CC12CCC(C1)C(C)(C)C2=O` (stereo not given) [fenchone], the odorant receptor activation with OR4K13 clone 1266 stood at 1.05; in the assay with OR4K14 clone 1276 it was 1.18; in assay [1], 0.655; in the assay on OR4K17 clone 1319, 1.06; in the assay on OR4K17 clone 1420 it was 0.914; with OR4K2 clone 1258 it was 1.1. Besides, the odorant receptor activation turned out to be 0.972 in the assay on OR4K3 clone 1259; 0.922 in the assay on OR4K5 clone 1261; 0.867 in the assay on OR4L1 R52S clone 1265; 0.8 in the assay on OR4M1 clone 1559; 1.08 in the assay on OR4M2 clone 1278; 0.912 in the assay on OR4N2 clone 1270. The odorant receptor activation with OR4N4 clone 1277 was 0.801; in the assay on OR4N5 clone 1262 it was 1.66; in the assay on OR4P4 R231C clone 1398, 0.753; with OR4P4 clone 1139 it was 1.01; with OR4Q3 clone 1411 it was 1.05; in the assay with OR4S1 clone 1283, 1.04. Moreover, the odorant receptor activation stood at 1.03 with OR4S2 clone 1175 and 0.876 with OR4X2 clone 1193.
